Experimental data reported in paper PMC11157767 (Molecular Cancer, 2024).
The source gives many values for each of these; only a part stands here.

Tested on: TFG-MET allograft tumors
Experiment: RNA-sequencing, differential expression and GSEA of TFG-MET allograft tumors
Assay type: in vivo, mouse
Conditions: CAP.v.Veh
Description: Error bars display standard error of mean, statistical significance was determined using t-test analysis. (****;p<0.0001, ***;p<0.001, **;p<0.01, *;p<0.05). […] Each dot represents an individual replicate. Error bars display standard error of the mean.
Each dot represents one gene.

[1] = GOCC_PERINUCLEAR_REGION_OF_CYTOPLASM
[2] = GOCC_PHOSPHATIDYLINOSITOL_3_KINASE_COMPLEX
[3] = GOCC_PLASMA_MEMBRANE_SIGNALING_RECEPTOR_COMPLEX
[4] = GOCC_PLATELET_ALPHA_GRANULE_LUMEN
[5] = GOCC_POLYMERIC_CYTOSKELETAL_FIBER
[6] = GOCC_POSTSYNAPTIC_SPECIALIZATION_MEMBRANE
[7] = GOCC_PROTEASOME_ACCESSORY_COMPLEX
[8] = GOCC_PROTEIN_COMPLEX_INVOLVED_IN_CELL_ADHESION
[9] = GOCC_RECYCLING_ENDOSOME_MEMBRANE
[10] = GOCC_ROUGH_ENDOPLASMIC_RETICULUM
[11] = GOCC_ROUGH_ENDOPLASMIC_RETICULUM_MEMBRANE
[12] = GOCC_SCF_UBIQUITIN_LIGASE_COMPLEX
[13] = GOCC_SCHAFFER_COLLATERAL_CA1_SYNAPSE
[14] = GOCC_SMOOTH_ENDOPLASMIC_RETICULUM

CNC(=O)c1ccc(-c2cnc3ncc(Cc4ccc5ncccc5c4)n3n2)cc1F [Capmatinib]
NES (GOCC_PERINUCLEAR_ENDOPLASMIC_RETICULUM): -0.7376
ES [1]: -0.1899
NES [1]: -0.9124
ES (GOCC_PHOSPHATASE_COMPLEX): -0.2642
NES (GOCC_PHOSPHATASE_COMPLEX): -0.9605
ES [2]: -0.4324
NES [2]: -1.377
ES (GOCC_PIGMENT_GRANULE): 0.2169
NES (GOCC_PIGMENT_GRANULE): 1.085
ES (GOCC_PLASMA_MEMBRANE_RAFT): -0.2417
NES (GOCC_PLASMA_MEMBRANE_RAFT): -0.9954
ES [3]: 0.1657
NES [3]: 0.8969
ES (GOCC_PLATELET_ALPHA_GRANULE): 0.1803
NES (GOCC_PLATELET_ALPHA_GRANULE): 0.8681
ES [4]: 0.2296
NES [4]: 1.037
ES (GOCC_PODOSOME): -0.3106
NES (GOCC_PODOSOME): -1.005
ES (GOCC_POLE_PLASM): -0.4824
NES (GOCC_POLE_PLASM): -1.316
ES [5]: -0.2011
NES [5]: -0.9608
ES (GOCC_PORE_COMPLEX): -0.2826
NES (GOCC_PORE_COMPLEX): -0.8473
ES (GOCC_POSTSYNAPTIC_ENDOSOME): 0.4318
NES (GOCC_POSTSYNAPTIC_ENDOSOME): 1.356
ES [6]: 0.1653
NES [6]: 0.8215
ES (GOCC_PRC1_COMPLEX): -0.392
NES (GOCC_PRC1_COMPLEX): -1.07
ES (GOCC_PRESYNAPSE): 0.1605
NES (GOCC_PRESYNAPSE): 0.9597
ES [7]: -0.3722
NES [7]: -1.158
ES [8]: -0.3375
NES [8]: -1.138
ES (GOCC_PSEUDOPODIUM): 0.3771
NES (GOCC_PSEUDOPODIUM): 1.184
ES (GOCC_RECEPTOR_COMPLEX): 0.1635
NES (GOCC_RECEPTOR_COMPLEX): 0.9687
ES (GOCC_RECYCLING_ENDOSOME): 0.1904
NES (GOCC_RECYCLING_ENDOSOME): 1.032
ES [9]: 0.1916
NES [9]: 0.938
ES (GOCC_RETROMER_COMPLEX): -0.4587
NES (GOCC_RETROMER_COMPLEX): -1.3508
ES (GOCC_RIBOSOMAL_SUBUNIT): -0.225
NES (GOCC_RIBOSOMAL_SUBUNIT): -0.9859
ES [10]: 0.2007
NES [10]: 0.9282
ES [11]: -0.3098
NES [11]: -0.9772
ES (GOCC_RUFFLE): -0.2488
NES (GOCC_RUFFLE): -1.085
ES (GOCC_RUFFLE_MEMBRANE): -0.2397
NES (GOCC_RUFFLE_MEMBRANE): -0.963
ES (GOCC_SARCOLEMMA): 0.1843
NES (GOCC_SARCOLEMMA): 0.954
ES (GOCC_SARCOPLASM): 0.1776
NES (GOCC_SARCOPLASM): 0.8371
ES [12]: -0.23
NES [12]: -0.864
ES [13]: 0.2674
NES [13]: 1.243
ES (GOCC_SIN3_TYPE_COMPLEX): -0.4457
NES (GOCC_SIN3_TYPE_COMPLEX): -1.216
ES (GOCC_SITE_OF_POLARIZED_GROWTH): -0.1856
NES (GOCC_SITE_OF_POLARIZED_GROWTH): -0.8172
ES (GOCC_SMALL_RIBOSOMAL_SUBUNIT): -0.2971
NES (GOCC_SMALL_RIBOSOMAL_SUBUNIT): -1.148
ES [14]: 0.2223
NES [14]: 0.8413
ES (GOCC_SODIUM_CHANNEL_COMPLEX): 0.3002
NES (GOCC_SODIUM_CHANNEL_COMPLEX): 1.025
ES (GOCC_SPINDLE_MICROTUBULE): -0.2513
NES (GOCC_SPINDLE_MICROTUBULE): -0.9618
ES (GOCC_SPINDLE_MIDZONE): -0.2787
NES (GOCC_SPINDLE_MIDZONE): -0.9342
ES (GOCC_STEREOCILIUM_BUNDLE): -0.2611
